The target in assay [1] is HP1β-HA (UniProt P83916). Put plainly: co-IP; HA beads, whole cell extracts of HEK293F cells expressing HA-tagged HP1 constructs; blot of endogenous H2A.Z.
The target in assay [2] is HP1β-HA (UniProt P83916). The experiment in a line: co-IP; HA agarose beads, nuclear extracts of transfected HEK293F cells (Dignam protocol, Benzonase 6 h at 4°C), overnight at 4°C, washes with BC100 and BC500 (500 mM KCl), elution with 0.2 M glycine pH 2.3; blot.
The target of a further assay is HP1β-RFP (UniProt P83916). The experiment in a line: FRET or BRET; FRET by time-correlated single-photon counting in PCH foci of living NIH3T3 cells cotransfected for 48 h with H2A.Z.1-EGFP (donor) and HP1-RFP (acceptor); relative FRET % against GFP-RFP (100%) and donor alone (0%). In general terms: Bioluminescence resonance energy transfer reports proximity on the nanometre scale.

Amino acid sequences for entries named in this document (tags omitted). A change or cut given only in a name is not applied to a line headed by its entry.
UniProt P83916: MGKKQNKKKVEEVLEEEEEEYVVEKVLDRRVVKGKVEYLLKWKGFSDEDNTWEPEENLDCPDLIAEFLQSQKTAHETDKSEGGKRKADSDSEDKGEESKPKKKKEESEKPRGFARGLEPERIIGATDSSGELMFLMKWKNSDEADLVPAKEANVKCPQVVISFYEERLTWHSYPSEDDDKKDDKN
UniProt P0C0S5: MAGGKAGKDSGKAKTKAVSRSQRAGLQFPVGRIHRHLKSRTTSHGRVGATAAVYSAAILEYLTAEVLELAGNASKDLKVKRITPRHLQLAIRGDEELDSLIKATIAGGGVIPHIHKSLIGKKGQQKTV

No constants are given. Whether binding was seen depends on the method and setting. In cells and extracts the contact can be indirect. Some entries that bind do so weakly or less than the wild type.

In the case of “endogenous H2A.Z (from UniProt P0C0S5 1-128)”, the binding entry with HP1β-HA [1] and with HP1β-HA [2] was “binds” throughout.

As to “H2A.Z.1-EGFP (from UniProt P0C0S5 1-128)”, the binding entry with HP1β-HA [2] and with HP1β-RFP was “binds” in each case.

For the origin of these results see publication PMC10665487.
